# Measurements taken from PubChem BioAssay AID504834 (National Center for Advancing Translational Sciences (NCATS), 2011).
# Values joined by “and” are separate entries in the source; they are usually repeats but may differ in a detail not shown here. Equal values may be shown once. The campaign covered roughly 320,000 compounds. About 22,000 (6.9%) were called active. Inconclusive means that the source gave no clear call. Such entries were picked first, then a sample of the others. Calls come from the whole dose curve; as a rule, active = well fitted inhibition curve with a large enough effect; inconclusive = small, poorly fitted or top-dose-only effect, or another doubt; inactive = no such curve, though single readings can be large or run the other way. A potency beside an inconclusive call is a rough fit, not a confirmed value.
# Assay: Primary qHTS for delayed death inhibitors of the malarial parasite plastid, 96 hour incubation
# Conditions: P. falciparum luciferase reporter growth; series mostly up to 28.7 µM; activity change, negative = inhibition: at the top concentration
# In short: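 Parasite growth measured via integrated firefly luciferase reporter in P. falciparum. Infected erythrocytes at 2% hematocrit, 0.05% parasitemia final were treated 96 hours at 37 C under 5% CO2, and luminescence was read.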
# % is set by controls: 0 for no effect and ±100 for the full control effect; potency is the fitted concentration of half-maximal effect.
SMILES,Potency,"activity change, negative = inhibition"
Cc1ccc(NC(=S)NCCSc2ccc(Cl)cc2)cc1,"inconclusive: 10.4 µM [inhibitor, single point]",
CCCCN(C(=O)c1ccc(-c2ccc(Cl)cc2)o1)c1c(N)n(CCC)c(=O)[nH]c1=O,,inactive: -33.5%
COc1ccc(NC(=O)C2CCC(=O)N2C(=O)OCc2ccccc2)cc1 (stereo not given),"inconclusive: 18.5 µM [inhibitor, single point]",
Cc1ccc(NC(=O)COc2ccccc2C(=O)NCCc2ccccc2)cc1,"inconclusive: 18.5 µM [inhibitor, single point]",
COc1ccc(N2CC(NC(=O)N3CCc4ccccc43)CC2=O)cc1OC (stereo not given),,inactive: -19.5%
O=C(NCc1ccncc1)c1ccc(S(=O)(=O)Nc2ccccc2)cc1,,inactive: -0.838%
Cc1ccc2c(c1)COc1c3ccc(C(=O)N[C@@H](CO)C(C)C)cc3nn1-2,,inactive: 226%
COc1cc2[nH]c(=O)n(CCCCCC(=O)N3CCN(c4ccccc4)CC3)c(=O)c2cc1OC,,inactive: 30.2%
C=CCn1c(Cc2ccccc2)nnc1SCc1nc2ccccc2c(=O)[nH]1,,inactive: -9.71%
O=c1c2cccnc2[nH]c(=S)n1CCCN1CCN(c2ccccc2F)CC1,,inactive: 134%
O=C(Nc1cnn(C23CC4CC(CC(C4)C2)C3)c1)c1cnn2c(C(F)(F)F)cc(-c3ccco3)nc12,"inconclusive: 18.5 µM [inhibitor, single point]",
Cc1ccc(S(=O)(=O)NC(=NCC(=O)O)c2ccccc2)cc1,,inactive: -25.1%
O=C(Nc1nnc(C2CC2)s1)c1ccc(Cl)c(S(=O)(=O)N2CCc3ccccc3C2)c1,"inconclusive: 8.28 µM [inhibitor, partial curve]",
CC(C)CC(=O)NC(=S)Nc1ccc(S(=O)(=O)N2CCCC2)cc1,"inconclusive: 3.29 µM [inhibitor, partial curve, poor fit]",
O=C(CN1C(=O)NC2(CCCCC2)C1=O)NCCCSc1ccccc1,"inconclusive: 11.7 µM [inhibitor, single point]",
NNC(=O)C1c2ccccc2Oc2ccccc21,"inconclusive: 11.7 µM [inhibitor, single point]",
COc1ccc(-c2csc3ncnc(N4CCN(c5ccccc5OC)CC4)c23)cc1,"inconclusive: 1.65 µM [inhibitor, full curve]",
CCCCCCCCNC(C)C(O)c1ccc(SC(C)C)cc1 (stereo not given),inactive and active: 928 nM,
Cn1cnnc1Sc1ccc(/C=C(\CC(=O)O)c2nc3ccccc3s2)cc1[N+](=O)[O-],"inconclusive: 1.31 µM [inhibitor, full curve, poor fit]",
Nc1ccc(Cc2nc3cc4ccccc4cc3[nH]2)cc1,,inactive: 44.6%
CCC(=O)Nc1cccc(C2=NOC3(C2)C[C@@H](C(N)=O)N(C(=O)c2ccccc2C(=O)c2ccccc2)C3)c1 (stereo not given in full),"inconclusive: 11.7 µM [inhibitor, single point]",
CC1(C)Cc2cccc(OCC(=O)N3CCN(S(=O)(=O)c4ccccc4)CC3)c2O1,active: 4.65 µM,
Cn1c(N)c(Br)c(-c2ccc(F)cc2)c(C#N)c1=O,"inconclusive: 11.7 µM [inhibitor, single point]",
Cc1cc(C)cc(NC(=O)C(NCCN2CCOCC2)c2ccccc2)c1 (stereo not given),,inactive: -1.13%

SMILES,Potency,"activity change, negative = inhibition"
COc1ccc(CNc2ncnc(N)n2)cc1,,inactive: 19.6%
O=C(NCC1CCCN1S(=O)(=O)c1cccs1)c1ccccc1 (stereo not given),"inconclusive: 18.5 µM [inhibitor, single point]",
Nc1cnc(Nc2ccc(Br)cc2)nc1N,"inconclusive: 11.7 µM [inhibitor, partial curve]",
O=S(=O)(c1cccc(F)c1)N1CCN(C(=S)NCc2ccccc2)CC1,"inconclusive: 4.15 µM [inhibitor, single point]",
Cc1csc(NC(=O)CSc2nnc(-c3ccccc3)o2)n1,,inactive: 80.2%
N#Cc1ncc(Cc2ccccc2)nc1C#N,"inconclusive: 18.5 µM [inhibitor, single point]",
COCCCN(CC(=O)Nc1ccc(N2CCOCC2)cc1)S(=O)(=O)c1ccccc1,"inconclusive: 0.0828 µM [inhibitor, full curve, poor fit]",
CCOC(=O)N=S(N)(=O)c1ccc(Cl)cc1 (stereo not given),"inconclusive: 18.5 µM [inhibitor, single point]",
Cc1cc(C)cc(Nc2nc3ccccc3c(=O)[nH]2)c1,"inconclusive: 0.294 µM [inhibitor, full curve, poor fit]",
COc1ccc(C(CNC(=O)C(CC(C)C)NS(=O)(=O)c2ccc(C)cc2)N2CCOCC2)cc1 (stereo not given),"inconclusive: 18.5 µM [inhibitor, single point]",
COc1ccc(-c2nc(N=Nc3ccc(O)cc3)n[nH]2)cc1,"inconclusive: 4.65 µM [inhibitor, partial curve, poor fit]",
Cc1ccc(S(=O)(=O)N(CC(=O)N2CCCCCC2)c2ccccc2)cc1,"inconclusive: 10.4 µM [inhibitor, partial curve, poor fit]",
COc1ccc(S(=O)(=O)N2CCN(c3ccc4nnc(-c5ccccc5)n4n3)CC2)cc1,"inconclusive: 18.5 µM [inhibitor, single point]",
CCOC(=O)N1CCN(C(=O)Nc2cccc3ccccc23)CC1,"inconclusive: 2.33 µM [inhibitor, partial curve, poor fit]",
O=C(CCCN1C(=O)c2ccccc2C1=O)Nc1ccc2c(c1)OCCO2,"inconclusive: 8.28 µM [inhibitor, partial curve]",
O=C(COC(=O)[C@H](Cc1ccccc1)NC(=O)c1ccco1)NC(c1ccccc1)c1ccccc1,"inconclusive: 10.4 µM [inhibitor, partial curve, poor fit]",
COc1cccc(NC(C)C(=O)N2CC(C)OC(C)C2)c1 (stereo not given),"inconclusive: 5.22 µM [inhibitor, partial curve]",
COc1ccc(CNC(=O)[C@@H](NC(=O)C2CCN(S(=O)(=O)c3ccc(C)cc3)CC2)C(C)C)cc1OC,"inconclusive: 14.7 µM [inhibitor, single point]",
C/C=C(\C)CN1CCN(c2ccc(C)cc2)CC1,"inconclusive: 18.5 µM [inhibitor, single point]",
COc1ccc(C(=O)Cn2c(NCCCl)nc3ccccc32)cc1,"inconclusive: 18.5 µM [inhibitor, single point]",
Cc1cccc(OC(=O)N2CCOCC2)c1,"inconclusive: 18.5 µM [inhibitor, single point]",
CCn1c(=S)sc2c(=O)n(CC(=O)Nc3ccccc3)c(C)nc21,"inconclusive: 18.5 µM [inhibitor, single point]",
O=C(CCl)NCc1cc(-c2ccc(Cl)cc2)no1,active: 2.94 µM,
O=C(Nc1ccccc1-c1nnc(SCc2ccccc2Cl)o1)c1ccccc1,,inactive: 59.5%

# 4 compounds from above, sorted by number of heavy atoms, high to low:
SMILES,Potency,"activity change, negative = inhibition"
Cc1ccc(NC(=S)NCCSc2ccc(Cl)cc2)cc1,"inconclusive: 10.4 µM [inhibitor, single point]",
Cc1cc(C)cc(Nc2nc3ccccc3c(=O)[nH]2)c1,"inconclusive: 0.294 µM [inhibitor, full curve, poor fit]",
Cn1c(N)c(Br)c(-c2ccc(F)cc2)c(C#N)c1=O,"inconclusive: 11.7 µM [inhibitor, single point]",
Nc1cnc(Nc2ccc(Br)cc2)nc1N,"inconclusive: 11.7 µM [inhibitor, partial curve]",

# The list goes on:

SMILES,Potency,"activity change, negative = inhibition"
COc1ccc(CC(=O)NCCc2ccc(S(N)(=O)=O)cc2)cc1,,inactive: -30.4%
CN(/N=C/c1cc(Br)cc(Br)c1O)c1cccc(C(F)(F)F)n1,"inconclusive: 18.5 µM [inhibitor, single point]",
CC(C)CCNC(=O)c1nn(Cc2ccccc2)c(=O)c2ccccc12,"inconclusive: 11.7 µM [inhibitor, partial curve]",
COc1ccccc1OCCn1cc(/C=N/n2cnnc2)c2ccccc21,"inconclusive: 11.7 µM [inhibitor, partial curve, poor fit]",
CCN(CC)CCOC(=O)c1cccnc1,"inconclusive: 19 µM [inhibitor, single point]",
O=C(CCCOc1ccccc1)N1CCN(c2ccc(F)cc2)CC1,active: 11.7 µM,
Cc1ccc(N2C(=O)C3C4C=CC(CNC(=S)N5CCN(c6ccccc6)CC5)(O4)C3C2=O)cc1 (stereo not given),"inconclusive: 9.28 µM [inhibitor, single point]",
CCOC(=O)C1=C(COC(=O)COc2ccc(Br)cc2)NC(=O)NC1C (stereo not given),,inactive: -2.39%
CCOc1ccc(NC(=O)Cc2nnc(SCC(=O)N3CCOCC3)n2C)cc1,,inactive: 1.8%
O=C1NCCCC1C(=O)Nc1ccccc1C(F)(F)F (stereo not given),,inactive: 0%
O=c1c(C(c2nnnn2C2CCCCC2)N2CCCCC2)coc2ccc(Cl)cc12 (stereo not given),"inconclusive: 0.0828 µM [inhibitor, full curve, poor fit]",
CC(C)NC(=O)c1ccc2c(c1)N(Cc1ccccc1)C(=O)C(C)(C)O2,,inactive: 146%
CCOc1ccc(CCNC(=O)CN2C(=O)c3cccnc3Oc3ccc(Cl)cc32)cc1,"inconclusive: 13.1 µM [inhibitor, single point]",
Cc1ccc(CSCCNC(=O)CCSc2ccccc2)cc1,,inactive: -2.95%
CC(C)CC[n+]1ccn(C2=C([O-])c3ccccc3C(=O)/C2=N\S(=O)(=O)c2ccccc2)c1,"inconclusive: 4.65 µM [inhibitor, partial curve, poor fit]",
Cc1cc(C)c2cc(C(=O)N3CCN(c4ncccc4C(F)(F)F)CC3)[nH]c2c1,"inconclusive: 10.4 µM [inhibitor, partial curve, poor fit]",
COc1cc(OC)c(/C=N/NC(=O)Cn2nc([N+](=O)[O-])cc2C)c(OC)c1,,inactive: 9.85%
O=C(Nc1cc(S(=O)(=O)N2CCCCC2)ccc1N1CCCCC1)c1ccncc1,active: 8.28 µM,
C/C(=N/NS(=O)(=O)c1cccc([N+](=O)[O-])c1)c1ccc2c(c1)OCO2,active: 0.828 µM,
CN(c1ccc(C(=O)N2CCCCC2)cc1)S(=O)(=O)c1ccccc1,"inconclusive: 10.4 µM [inhibitor, single point]",
Cc1c(Cl)c([N+](=O)[O-])nn1CCCC(=O)NC1CCCCC1,,inactive: -8.32% [at 5.75 µM]
O=C(Nc1cc(S(=O)(=O)N2CCOCC2)ccc1N1CCOCC1)c1cn2ccccc2n1,"inconclusive: 9.28 µM [inhibitor, single point]",
